PubChem BioAssay AID1259254 | NCATS – 2017

Aim: 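Genome-wide screen for genes that prevent DNA re-replication in cancer cells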 (primary screen)
Cells: human HCT116 colorectal cancer cells
Reagents: single siRNA against human genes
Time to read-out: 3 days
Measured: 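Imaged Hoechst DNA stain sorts each cell into a cycle phase by DNA amount; per plate, G2 fraction set to 0% for non-targeting and 100% for GMNN siRNA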
Scale: G2 robust z-score and G2 cells, % of GMNN control: higher = more G2 cells, more excess DNA replication; raw share of cells in G2: higher = larger share of cells with G2 DNA content
Call rule: 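An siRNA counts as active if its G2 robust z-score lies at least 5 MADs above the screen median; here such calls match roughly 38% of GMNN control or more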
The whole screen tested about 59,000 reagents; below is a random part of them. About 1,550 of them (2.6%) were called active. 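G2 share is only a proxy for re-replication; each gene was hit by three separate siRNAs, and active genes were retested.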 Raw values vary from plate to plate and are shown uncorrected. Entries without a mark were called inactive. Reagents against one gene are numbered here. The record does not give: the amount of reagent.

target | reagent no. | G2 robust z-score | G2 cells, % of GMNN control | raw share of cells in G2 (%)
SYNJ1 (synaptojanin 1) | 1 | 0.242 | 4.67 | 6.31
SYNJ1 (synaptojanin 1) | 2 | -0.28 | 0.996 | 4.6
SYNJ1 (synaptojanin 1) | 3 | -1.05 | -4.42 | 2.17
STAT4 (signal transducer and activator of transcription 4) | 1 | 0.612 | 7.27 | 8.13
STAT4 (signal transducer and activator of transcription 4) | 2 | -0.163 | 1.82 | 5.17
STAT4 (signal transducer and activator of transcription 4) | 3 | 0.317 | 5.2 | 5.68
CPEB2 (cytoplasmic polyadenylation element binding protein 2) | 1 | -0.24 | 1.28 | 5.24
CPEB2 (cytoplasmic polyadenylation element binding protein 2) | 2 | 2.28 | 19 | 15
CPEB2 (cytoplasmic polyadenylation element binding protein 2) | 3 | -0.579 | -1.1 | 4.3
LRRC40 (leucine rich repeat containing 40) | 1 | -1.05 | -4.41 | 2.83
LRRC40 (leucine rich repeat containing 40) | 2 | 0.813 | 8.69 | 7.74
LRRC40 (leucine rich repeat containing 40) | 3 | -0.2 | 1.56 | 3.64
C16orf54 (chromosome 16 open reading frame 54) | 1 | 1.65 | 14.6 | 8.34
C16orf54 (chromosome 16 open reading frame 54) | 2 | 2.62 | 21.4 | 11.7
C16orf54 (chromosome 16 open reading frame 54) | 3 | 0.982 | 9.88 | 8.01

In a second layout: entries from further up
{"target": "LRRC40 (leucine rich repeat containing 40)", "reagent no.": 2, "G2 robust z-score": 0.813, "G2 cells, % of GMNN control": 8.69, "raw share of cells in G2 (%)": 7.74}
{"target": "LRRC40 (leucine rich repeat containing 40)", "reagent no.": 3, "G2 robust z-score": -0.2, "G2 cells, % of GMNN control": 1.56, "raw share of cells in G2 (%)": 3.64}

Additional results:
target | reagent no. | G2 robust z-score | G2 cells, % of GMNN control | raw share of cells in G2 (%)
CBX8 (chromobox 8) | 1 | 0.0564 | 3.36 | 7.04
CBX8 (chromobox 8) | 2 | -0.855 | -3.05 | 3.27
CBX8 (chromobox 8) | 3 | 0.82 | 8.74 | 7.4
CZ1P-ASNS (CZ1P-ASNS readthrough) | 1 | 1.25 | 11.8 | 8.17
CZ1P-ASNS (CZ1P-ASNS readthrough) | 2 | -0.356 | 0.465 | 3.59
CZ1P-ASNS (CZ1P-ASNS readthrough) | 3 | 1.09 | 10.6 | 6.74
PDHA1 (pyruvate dehydrogenase E1 subunit alpha 1) | 1 | -1.73 | -9.19 | 1.81
PDHA1 (pyruvate dehydrogenase E1 subunit alpha 1) | 2 | 0.103 | 3.69 | 5.42
PDHA1 (pyruvate dehydrogenase E1 subunit alpha 1) | 3 | -0.871 | -3.16 | 2.54
CACNA1D (calcium voltage-gated channel subunit alpha1 D) | 1 | -0.327 | 0.664 | 5.53
CACNA1D (calcium voltage-gated channel subunit alpha1 D) | 2 | 0.0368 | 3.23 | 5.87
CACNA1D (calcium voltage-gated channel subunit alpha1 D) | 3 | -0.0669 | 2.5 | 5.35
ARID4A (AT-rich interaction domain 4A) | 1 | -0.4 | 0.152 | 3.52
ARID4A (AT-rich interaction domain 4A) | 2 | 0.661 | 7.62 | 8.41
ARID4A (AT-rich interaction domain 4A) | 3 | 0.812 | 8.68 | 6.26
